# This is one part of the list. These are further read-outs of the screen, such as a control signal, another cell line or another target. No call is given for them. Compounds called inactive in the main read-out are mostly missing here. Potencies come from curve fits of mixed quality, noted in brackets.
# Assay: qHTS Assay for Lipid Storage Modulators in Drosophila S3 Cells;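 on cell number change: cells counted by Cell Tracker Red CMTPX staining in the red channel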
# Conditions: BODIPY lipid droplet fluorescence, 18-24 h; for cell number change: measured here: cell count max response, cells fed with added oleic acid
# Procedure, shortened: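 Drosophila S3 cells got compounds at several concentrations plus oleic acid (400 uM solution). Laser-scanning cytometry with 488 nm excitation read lipid droplets at 500-530 nm and cells at 575-640 nm. Percent activity was relative to 20 uM Triacsin C.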
# [1] = measured here: cell number channel AC50, cells fed with added oleic acid
# [2] = measured here: lipid fluorescence (Fed channel) AC50, cells fed with added oleic acid
SMILES,cell number change,AC50 [1],AC50 [2]
Nc1cc(=O)[nH]c(SCC(=O)Nc2ccccc2Sc2ccc(Cl)cc2)n1,-41.1%,"7.31 µM [falling, partial curve]","0.13 µM [falling, full curve, poor fit]"
CCOC(=O)c1ccc(NC(=O)C2CC(=O)N=C(N)S2)cc1 (configuration not stated),23.4%,–,–
CC(NC(=O)CCC(=O)c1ccccc1)c1ccc(F)cc1 (configuration not stated),–,–,"1.84 µM [rising, partial curve]"
O=C(Cn1c(=O)n(-c2cccc(C(F)(F)F)c2)c(=O)c2sccc21)NCC1CCCO1 (configuration not stated),21.8%,–,–
Cc1ccc(NC(=O)CSC(C)C(=O)OC(C)C(=O)NC2CCCCC2C)cc1 (configuration not stated),-0.323%,–,–
O=C(NC1CCCCCC1)c1cc(S(=O)(=O)N2CCCCC2)ccc1N1CCOCC1,61.8%,"0.00461 µM [rising, full curve, poor fit]","0.0184 µM [rising, full curve, poor fit]"
Cc1cc(C)n(Cc2cccc(C(=O)N/N=C/c3cccnc3)c2)n1,-6.91%,–,"0.13 µM [rising, full curve, poor fit]"
O=C(O)c1cc(-c2cccs2)nc2ccc(Br)cc12,-9.72%,–,"3.66 µM [rising, partial curve]"
CCC(=O)Nc1ccc(C(=O)Nc2ccc3c(c2)C(=O)N(CC2CCCO2)C3=O)cc1 (configuration not stated),-13.7%,–,"6.51 µM [falling, single point]"
CC(C)CC(=O)Nc1ccnc(-c2ccncc2)n1,8.46%,–,–
CCC(=O)Nc1ccc(Cl)c(NC(=O)c2c(OC)cccc2OC)c1,–,"3.66 µM [falling, partial curve]","2.06 µM [falling, partial curve]"
CC(C)(C)c1nc2scc(-c3cccs3)c2c(=O)o1,-45.7%,"23.1 µM [falling, partial curve]","29.1 µM [falling, single point]"
COC(=O)c1ccc(C(NC(=O)OCc2ccccc2)/C(F)=C/[C@@H](C)C(=O)NCc2ccc(-c3ccccc3)cc2)cc1 (some centres not stated),27.7%,–,"0.0731 µM [falling, partial curve, poor fit]"
COc1cccc(N(CC(=O)Nc2cccc(C(C)=O)c2)S(C)(=O)=O)c1,–,–,"29.1 µM [rising, single point]"
CCOC(=O)N1CCN(S(=O)(=O)N2CCCC(C(=O)NCc3cccc(OC)c3)C2)CC1 (configuration not stated),-2.12%,–,"4.11 µM [falling, single point]"
Cc1ccc(C(C(=O)NC(C)(C)C)N(CC2CCCO2)C(=O)Cn2nnc(-c3ccc(C)o3)n2)cc1 (configuration not stated),-41%,"8.2 µM [falling, partial curve]","25.9 µM [falling, partial curve]"
C/[N+]([O-])=C1\Cc2ccccc2C1=O,2.17%,–,"4.11 µM [falling, single point]"
CN(C)c1ccc(C(=O)OCC(=O)N2CCCC2)cc1,-6.31%,–,–
N/C(=N/OC(=O)c1ccccc1F)c1nonc1N,4.11%,"4.11 µM [falling, single point]",–

SMILES,cell number change,AC50 [1],AC50 [2]
O=C(Cn1cc(C(F)(F)F)ccc1=O)NC1CCCC1,9.45%,"1.46 µM [falling, partial curve]","1.16 µM [falling, partial curve]"
COc1ccc(OC)c(CCNC(=O)CCc2nnc3ccc(N4CCOCC4)nn23)c1,-11.6%,–,–
CCCn1c(=O)c(C(=O)Nc2ncccc2O)c(O)c2ccccc21,-7.72%,–,"1.3 µM [rising, full curve]"
COc1ccccc1N1N=C(c2cccs2)CC1c1ccccc1 (configuration not stated),-36.1%,"0.092 µM [falling, full curve, poor fit]","1.03 µM [falling, full curve, poor fit]"
c1ccc(Oc2cccc(CN3CCOCC3)c2)cc1,3.51%,–,"13 µM [rising, partial curve, poor fit]"
Cc1nn(C)c(C)c1CN(C)C(=O)c1cc2nc(-c3ccco3)cc(C(F)(F)F)n2n1,68.3%,"29.1 µM [rising, single point]","3.66 µM [rising, partial curve]"
O=C(c1ccc(Br)s1)N1CCN(C/C=C/c2ccccc2)CC1,9.88%,–,–
Cc1ccc(CNc2ccc(CNc3ncn[nH]3)cc2)cc1,–,"2.31 µM [rising, partial curve, poor fit]",–
Cc1ccc(/C=C2/Sc3ccccc3N(CC(=O)NCCCOC(C)C)C2=O)cc1,-7.91%,"7.31 µM [falling, single point]",–
O=C(CSc1nncn1-c1ccccc1)NC1CCCCC1,15.8%,–,"6.51 µM [falling, single point]"
CC(=O)c1ccc(Nc2nc(-c3cccnc3)cs2)cc1,12.4%,–,"29.1 µM [rising, single point]"
COc1ccccc1N(Cc1ccccc1)S(=O)(=O)c1cccc(C(=O)NCC2CCCO2)c1 (configuration not stated),-28.4%,–,"0.259 µM [falling, partial curve, poor fit]"
COc1ccc(CCNC(=S)NC(=O)c2cccc([N+](=O)[O-])c2)cc1OC,-3.79%,–,"25.9 µM [falling, single point]"
CC1CCN(c2nc3c(c(=O)[nH]c(=O)n3C)n2CCSc2nc3ccccc3o2)CC1,-33.3%,"3.66 µM [falling, full curve]","3.66 µM [falling, full curve]"
CCN(CC)S(=O)(=O)c1ccc(N2CCOCC2)c(C(=O)O)c1,-7.14%,–,"0.651 µM [falling, full curve]"
CCOC(=O)c1c(NC(=O)c2ccoc2C)sc(C(=O)N(C)C)c1C,52.4%,"18.4 µM [rising, partial curve]",–
Cc1cc(=O)oc2cc(OCC(=O)Nc3c(C)n(C)n(-c4ccccc4)c3=O)c(Cl)cc12,38%,"2.31 µM [rising, full curve]",–
O=C(CSc1nc2nn(-c3ccccc3)c(=O)c-2c2n1CCCCC2)c1ccc(O)c(O)c1,-16.7%,–,"0.326 µM [falling, full curve, poor fit]"
O=C(NCc1ccc(F)cc1)C1CCCN(c2nc3ccsc3c(=O)s2)C1 (configuration not stated),-60.1%,"29.1 µM [falling, partial curve, poor fit]","29.1 µM [falling, single point]"

SMILES,cell number change,AC50 [1],AC50 [2]
NCCCNc1nc(N)c([N+](=O)[O-])c(NC2CCCCC2)n1,14.4%,–,"29.1 µM [rising, single point]"
O=C(COC(=O)c1cccs1)NC12CC3CC(CC(C3)C1)C2,-102%,"23.1 µM [falling, single point]","29.1 µM [falling, partial curve]"
COc1ccc(C2(C)NC(=O)N(CC(=O)NCc3ccccc3F)C2=O)cc1 (configuration not stated),34.1%,"29.1 µM [rising, single point]",–
CN(C)C1=NC[C@H](Cc2ccccc2)N1CCCCc1ccccc1,16.7%,"1.16 µM [rising, full curve, poor fit]","8.2 µM [rising, partial curve, poor fit]"
O=C(Cc1ccccc1)NCC(=O)OCc1ccc([N+](=O)[O-])cc1,50%,"13 µM [rising, single point]",–
Cc1ccc(C2CC(=O)C=C(NCc3ccccc3)C2)cc1 (configuration not stated),13%,–,"0.116 µM [falling, full curve, poor fit]"
O=[N+]([O-])c1ccc(Sc2nc3ccccc3o2)c([N+](=O)[O-])c1,-46.5%,"23.1 µM [falling, single point]","29.1 µM [falling, single point]"
COc1cccc(-c2nnc(N(C)C(=O)c3ccno3)s2)c1,17%,"0.0366 µM [rising, full curve, poor fit]","6.51 µM [rising, partial curve]"
CCCn1c(CCC(=O)O)ccc1-c1ccccc1,24%,–,"0.00461 µM [rising, full curve, poor fit]"
CCc1ccc(CN(C)C(=O)c2cc(COc3cccc(C(F)(F)F)c3)on2)nc1,43.8%,"20.6 µM [rising, partial curve, poor fit]","9.2 µM [rising, partial curve]"
CSCCC(NS(=O)(=O)c1ccc(Cl)cc1)C(=O)OCC(=O)NC1CCCCC1 (configuration not stated),-11.4%,–,"11.6 µM [rising, partial curve]"
O=C(CN1CCc2ccccc2C1)Nc1cc(S(=O)(=O)N2CCOCC2)ccc1N1CCCC1,-25.5%,"6.51 µM [falling, single point]","2.59 µM [rising, full curve, poor fit]"
COc1ccc(S(=O)CC(=O)Nc2ccccc2Cl)cc1 (configuration not stated),–,–,"4.61 µM [falling, partial curve]"
O=C(COC(=O)/C=C/c1cccc(C(F)(F)F)c1)NCCN1C(=O)CSC1=O,-11%,–,"0.366 µM [falling, partial curve]"
O=C(COc1ccc(Cl)cc1)NCCCNC(=O)c1cnccn1,15.4%,–,"29.1 µM [rising, single point]"
Clc1ccc(-c2csc3ncnc(NCCN4CCOCC4)c23)cc1,69.7%,"18.4 µM [rising, partial curve]",–
COc1cc(/C=C/c2ccc(O)cc2)cc(OC)c1,-59.1%,"14.6 µM [falling, partial curve]","13 µM [falling, partial curve]"
CCOc1ccc(NS(=O)(=O)c2ccc(C(=O)N(C)CC(=O)Nc3ccc(C)cc3)cc2)cc1,-45.5%,"16.4 µM [falling, partial curve, poor fit]",–

# Filtered by structure: the entries above containing two or more sulfur atoms
SMILES,cell number change,AC50 [1],AC50 [2]
Nc1cc(=O)[nH]c(SCC(=O)Nc2ccccc2Sc2ccc(Cl)cc2)n1,-41.1%,"7.31 µM [falling, partial curve]","0.13 µM [falling, full curve, poor fit]"
CC(C)(C)c1nc2scc(-c3cccs3)c2c(=O)o1,-45.7%,"23.1 µM [falling, partial curve]","29.1 µM [falling, single point]"
O=C(NCc1ccc(F)cc1)C1CCCN(c2nc3ccsc3c(=O)s2)C1 (configuration not stated),-60.1%,"29.1 µM [falling, partial curve, poor fit]","29.1 µM [falling, single point]"
CSCCC(NS(=O)(=O)c1ccc(Cl)cc1)C(=O)OCC(=O)NC1CCCCC1 (configuration not stated),-11.4%,–,"11.6 µM [rising, partial curve]"
